# The name of at least one read-out is uncertain.
# What was measured:
# [1] = similar conditions (37 C, pH 7.2); cited from earlier work
# [2] = ALAS steady-state activity, continuous spectrophotometric assay; assay type: biochemical; conditions: 20° C.
# Description: ALAS steady-state activity of the ALAS active site loop variants was determined at 20° C. using a continuous spectrophotometric assay as described previously for wild-type ALAS (Hunter & Ferreira. A continuous spectrophotometric assay for 5-aminolevulinate synthase that utilizes substrate cycling. Anal Biochem. 1995 Apr. 10; 226(2):221-4). Rapid scanning stopped-flow measurements were performed using a model RSM-100 stopped-flow spectrophotometer (OLIS, Inc.). This instrument has a dead-time of approximately 2-ms and an observation chamber path length of 4 mm Spectral scans covering a wavelength range of 300-570 nm were collected at a rate of 1000 scans/s and then averaged to 62 scans/s in order to reduce the time course data files to an appropriate size for global fit analyses. The temperature of the syringes and the stopped-flow cell compartment was maintained at 20° C. by an external water bath. […] Single turnover data were evaluated using either a two- or three-kinetic-step mechanism as described by Equations 1 and 2, respectively (Hunter, & Ferreira. Pre-steady-state reaction of 5-aminolevulinate synthase. Evidence for a rate-determining product release J Biol Chem. 1999 Apr. 30; 274(18):12222-8).
# The ALAS steady-state kinetic parameters of wild-type ALAS and the SS2 variant activity assays were also determined at 15, 25, and 35° C.
molecule,measurement,setting,value
"WT: wild-type murine erythroid 5-aminolevulinate synthase (mALAS-2) (protein, UniProt P08680 50-587, looked up) 5-aminolevulinate synthase, …: QIHLKATKAGGDSPSWAKSHCPFMLSELQDRKSKIVQRAAPEVQEDVKTFKTDLLSTMDSTTRSHSFPSFQEPEQTEGAVPHLIQNNMTGSQAFGYDQFFRDKIMEKKQDHTYRVFKTVNRWANAYPFAQHFSEASMASKDVSVWCSNDYLGISRHPRVLQAIEETLKNHGAGAGGTRNISGTSKFHVELEQELAELHQKDSALLFSSCFVANDSTLFTLAKLLPGCEIYSDAGNHASMIQGIRNSGAAKFVFRHNDPGHLKKLLEKSDPKTPKIVAFETVHSMDGAICPLEELCDVAHQYGALTFVDEVHAVGLYGARGAGIGERDGIMHKLDIISGTLGKAFGCVGGYIASTRDLVDMVRSYAAGFIFTTSLPPMVLSGALESVRLLKGEEGQALRRAHQRNVKHMRQLLMDRGFPVIPCPSHIIPIRVGNAALNSKICDLLLSKHSIYVQAINYPTVPRGEELLRLAPSPHHSPQMMENFVEKLLLAWTEVGLPLQDVSVAACNFCHRPVHFELMSEWERSYFGNMGPQYVTTYA",kcat/KM for succinyl-CoA,[1],333000 M⁻¹ s⁻¹
same,Kcat/Km^Gly,[2],0.0011 mM/s
same,Kcat/Km^Gly,[2]; second column with this head,1.8e-06 mM/s
